Patent US9862730B2, “Imidazothiadiazole derivatives as protease activated receptor 4 (PAR4) inhibitors for treating platelet aggregation” (BRISTOL-MYERS SQUIBB COMPANY, priority 2012, dated 2018)
pIC50: −log10 of the molar value. Structures were worked out from names or drawings and are uncertain.

Sequences of proteins named here, by UniProt entry; tags and fusion partners are left off. Residues count along the entry.
UniProt Q96RI0, 18-385 limits assumed: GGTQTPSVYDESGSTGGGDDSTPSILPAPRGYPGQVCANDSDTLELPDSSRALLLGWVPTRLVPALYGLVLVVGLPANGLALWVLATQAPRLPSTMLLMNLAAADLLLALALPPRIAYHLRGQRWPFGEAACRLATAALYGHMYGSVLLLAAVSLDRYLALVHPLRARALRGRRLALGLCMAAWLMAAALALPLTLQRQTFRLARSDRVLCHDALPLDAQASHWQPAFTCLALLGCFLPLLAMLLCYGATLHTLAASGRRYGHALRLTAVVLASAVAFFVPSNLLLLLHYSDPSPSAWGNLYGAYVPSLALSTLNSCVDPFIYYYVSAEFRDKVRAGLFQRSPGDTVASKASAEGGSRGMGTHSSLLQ

How the values were obtained:
[1] = target: T1, PAR4 (Homo sapiens (Human), UniProt Q96RI0); experiment: FLIPR assay in PAR4-expressing HEK293 cells (PAR4 antagonist activity, calcium mobilization); assay type: cell-based; conditions: read-out: PAR4 FLIPR Assay (IC50), FLIPR assay as described in Example A
[2] = target: T1, PAR4; experiment: Gamma thrombin induced platelet aggregation assay in PRP (PRP assay); assay type: cell-based; conditions: read-out: PAR4 PRP Assay (Gamma Thrombin, IC50)

Compound | pIC50 [1] | pIC50 [2]
COc1cc(OCc2cccc(OCc3ccccc3)c2)c2cc(-c3cn4nc(Cl)sc4n3)oc2c1 [Example 405] | 8.60 | 7.02
COc1cc(COc2cc(OC)cc3oc(-c4cn5nc(OC)sc5n4)cc23)cc(OCc2ccccc2)c1 [Example 404] | 8.69 | 
